Data as given in patent publication US5510460 (dated 1996).

Test: general procedure: peptide synthesis; Boc-Pro-OBzl-polystyrene resin 1% cross-linked with divinylbenzene (Peninsula Laboratories, 0.38 meq/g); HOBt and DIPC (benzotriazolyl esters)
Details: whole synthesis

goserelin
isolated mass: 100 mg | isolated yield (overall, scale of the general procedure 1.25 g resin): 25% yield overall
